Literature values as cited in paper PMC2725292 (PLoS ONE, 2009).

Legend:
[1] = molecular target: recombinant mouse 5-HT3A receptors; settings: read-out: IC50 clozapine, recombinant mouse 5-HT3A receptors; previously reported, ref [23], [24]; cited from earlier work
[2] = molecular target: recombinant human 5-HT3A receptors; settings: read-out: IC50 clozapine, recombinant human 5-HT3A receptors; previously reported, ref [5]; cited from earlier work

In the case of CN1CCN(C2=Nc3cc(Cl)ccc3Nc3ccccc32)CC1 [clozapine, Clozapine], the IC50 [1] is given as 10 nM and the IC50 [2] is given as 680 nM.
